This is a selection; strong and weak results do not stand in their true shares.
Each target was assayed with COC(=O)C#Cc1ccccc1 [methyl 3-phenylpropiolate] (assay: log2 ratio of iodoacetamide-alkyne labeling of the cysteine site, DMSO over compound (competition); higher = stronger covalent engagement of the cysteine by the compound, active = 1 or more). Settings: 500 µM; treatment time 1 h; system: HEK293T cell lysate.
Method in brief: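 The log2 competition ratio per cysteine is defined as mean reporter intensity in control channels over mean reporter intensity in compound channels. Lysate from HEK293T cells (2 mg/mL) received electrophile (500 µM) or vehicle for 1 h at ambient temperature, followed by iodoacetamide alkyne for 1 h. Samples were clicked to sCIP-TMT reagents, pooled, trypsin-digested overnight at 37 °C, streptavidin-enriched, acid-eluted and run on Orbitrap Eclipse LC-MS/MS with FAIMS, with quantification in FragPipe. Three replicates with duplicate channels were used, and any cysteine quantified in only one replicate was excluded.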

Sequences of proteins named here, by UniProt entry; tags and fusion partners are left off. A change or cut given only in a name is not applied to a line headed by its entry.
UniProt O00148, whole entry, looked up: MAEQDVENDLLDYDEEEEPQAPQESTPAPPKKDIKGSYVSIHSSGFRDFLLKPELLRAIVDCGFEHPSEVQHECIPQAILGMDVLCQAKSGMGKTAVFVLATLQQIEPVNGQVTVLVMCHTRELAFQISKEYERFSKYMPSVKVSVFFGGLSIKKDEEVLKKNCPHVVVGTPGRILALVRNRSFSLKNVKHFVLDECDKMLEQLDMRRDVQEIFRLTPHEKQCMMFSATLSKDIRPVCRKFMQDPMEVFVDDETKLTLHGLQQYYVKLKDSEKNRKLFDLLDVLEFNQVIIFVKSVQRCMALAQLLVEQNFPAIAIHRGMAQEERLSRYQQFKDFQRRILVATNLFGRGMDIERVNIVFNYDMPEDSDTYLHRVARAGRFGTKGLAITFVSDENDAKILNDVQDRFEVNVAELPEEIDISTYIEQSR
UniProt O14618: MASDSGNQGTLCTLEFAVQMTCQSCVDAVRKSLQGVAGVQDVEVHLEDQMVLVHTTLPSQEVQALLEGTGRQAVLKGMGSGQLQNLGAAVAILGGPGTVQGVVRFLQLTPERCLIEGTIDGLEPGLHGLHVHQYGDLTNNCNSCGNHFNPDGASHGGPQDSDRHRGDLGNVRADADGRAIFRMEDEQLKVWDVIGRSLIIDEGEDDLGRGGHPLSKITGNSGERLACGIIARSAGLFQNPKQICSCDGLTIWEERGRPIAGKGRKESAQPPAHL
UniProt O15294: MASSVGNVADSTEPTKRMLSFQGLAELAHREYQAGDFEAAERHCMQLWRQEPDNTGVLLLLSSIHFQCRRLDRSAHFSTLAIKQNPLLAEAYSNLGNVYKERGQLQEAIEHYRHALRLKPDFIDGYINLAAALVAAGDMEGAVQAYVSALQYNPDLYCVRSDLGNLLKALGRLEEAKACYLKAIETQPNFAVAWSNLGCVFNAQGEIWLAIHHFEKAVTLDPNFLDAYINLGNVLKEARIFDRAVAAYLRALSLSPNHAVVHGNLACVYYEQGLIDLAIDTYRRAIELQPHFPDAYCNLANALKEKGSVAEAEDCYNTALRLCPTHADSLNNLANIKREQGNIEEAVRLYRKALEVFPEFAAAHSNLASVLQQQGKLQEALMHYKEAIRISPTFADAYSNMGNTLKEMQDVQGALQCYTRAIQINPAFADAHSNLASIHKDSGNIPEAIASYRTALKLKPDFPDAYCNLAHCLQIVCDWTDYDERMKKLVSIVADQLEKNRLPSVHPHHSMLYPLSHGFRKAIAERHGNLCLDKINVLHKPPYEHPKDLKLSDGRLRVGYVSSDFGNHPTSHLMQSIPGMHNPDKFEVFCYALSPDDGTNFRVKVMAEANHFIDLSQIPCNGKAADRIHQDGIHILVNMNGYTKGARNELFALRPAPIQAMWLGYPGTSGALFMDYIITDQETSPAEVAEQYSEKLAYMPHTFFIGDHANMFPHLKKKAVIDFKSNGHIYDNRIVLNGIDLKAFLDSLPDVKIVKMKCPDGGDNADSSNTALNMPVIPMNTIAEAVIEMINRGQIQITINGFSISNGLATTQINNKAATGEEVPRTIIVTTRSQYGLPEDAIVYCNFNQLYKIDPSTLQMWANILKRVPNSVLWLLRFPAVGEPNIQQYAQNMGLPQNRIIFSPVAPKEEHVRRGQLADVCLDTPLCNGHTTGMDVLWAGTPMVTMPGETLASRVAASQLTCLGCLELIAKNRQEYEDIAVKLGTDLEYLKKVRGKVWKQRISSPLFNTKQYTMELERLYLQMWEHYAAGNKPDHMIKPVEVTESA
UniProt O15371, whole entry, looked up: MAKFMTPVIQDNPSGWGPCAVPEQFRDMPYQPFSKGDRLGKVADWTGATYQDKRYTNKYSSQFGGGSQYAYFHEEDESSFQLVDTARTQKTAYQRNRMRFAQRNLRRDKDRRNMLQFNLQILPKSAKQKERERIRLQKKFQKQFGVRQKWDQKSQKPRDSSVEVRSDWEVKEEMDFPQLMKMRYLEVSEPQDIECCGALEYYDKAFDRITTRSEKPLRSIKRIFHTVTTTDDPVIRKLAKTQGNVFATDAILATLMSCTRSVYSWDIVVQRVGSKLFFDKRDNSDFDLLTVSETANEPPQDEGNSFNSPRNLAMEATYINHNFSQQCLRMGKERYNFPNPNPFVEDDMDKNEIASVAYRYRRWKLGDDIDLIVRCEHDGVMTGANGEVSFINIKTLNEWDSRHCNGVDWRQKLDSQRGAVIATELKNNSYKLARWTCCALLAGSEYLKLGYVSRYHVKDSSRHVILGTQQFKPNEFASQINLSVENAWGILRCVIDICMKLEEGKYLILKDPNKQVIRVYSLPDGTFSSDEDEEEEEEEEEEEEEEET
UniProt O14802: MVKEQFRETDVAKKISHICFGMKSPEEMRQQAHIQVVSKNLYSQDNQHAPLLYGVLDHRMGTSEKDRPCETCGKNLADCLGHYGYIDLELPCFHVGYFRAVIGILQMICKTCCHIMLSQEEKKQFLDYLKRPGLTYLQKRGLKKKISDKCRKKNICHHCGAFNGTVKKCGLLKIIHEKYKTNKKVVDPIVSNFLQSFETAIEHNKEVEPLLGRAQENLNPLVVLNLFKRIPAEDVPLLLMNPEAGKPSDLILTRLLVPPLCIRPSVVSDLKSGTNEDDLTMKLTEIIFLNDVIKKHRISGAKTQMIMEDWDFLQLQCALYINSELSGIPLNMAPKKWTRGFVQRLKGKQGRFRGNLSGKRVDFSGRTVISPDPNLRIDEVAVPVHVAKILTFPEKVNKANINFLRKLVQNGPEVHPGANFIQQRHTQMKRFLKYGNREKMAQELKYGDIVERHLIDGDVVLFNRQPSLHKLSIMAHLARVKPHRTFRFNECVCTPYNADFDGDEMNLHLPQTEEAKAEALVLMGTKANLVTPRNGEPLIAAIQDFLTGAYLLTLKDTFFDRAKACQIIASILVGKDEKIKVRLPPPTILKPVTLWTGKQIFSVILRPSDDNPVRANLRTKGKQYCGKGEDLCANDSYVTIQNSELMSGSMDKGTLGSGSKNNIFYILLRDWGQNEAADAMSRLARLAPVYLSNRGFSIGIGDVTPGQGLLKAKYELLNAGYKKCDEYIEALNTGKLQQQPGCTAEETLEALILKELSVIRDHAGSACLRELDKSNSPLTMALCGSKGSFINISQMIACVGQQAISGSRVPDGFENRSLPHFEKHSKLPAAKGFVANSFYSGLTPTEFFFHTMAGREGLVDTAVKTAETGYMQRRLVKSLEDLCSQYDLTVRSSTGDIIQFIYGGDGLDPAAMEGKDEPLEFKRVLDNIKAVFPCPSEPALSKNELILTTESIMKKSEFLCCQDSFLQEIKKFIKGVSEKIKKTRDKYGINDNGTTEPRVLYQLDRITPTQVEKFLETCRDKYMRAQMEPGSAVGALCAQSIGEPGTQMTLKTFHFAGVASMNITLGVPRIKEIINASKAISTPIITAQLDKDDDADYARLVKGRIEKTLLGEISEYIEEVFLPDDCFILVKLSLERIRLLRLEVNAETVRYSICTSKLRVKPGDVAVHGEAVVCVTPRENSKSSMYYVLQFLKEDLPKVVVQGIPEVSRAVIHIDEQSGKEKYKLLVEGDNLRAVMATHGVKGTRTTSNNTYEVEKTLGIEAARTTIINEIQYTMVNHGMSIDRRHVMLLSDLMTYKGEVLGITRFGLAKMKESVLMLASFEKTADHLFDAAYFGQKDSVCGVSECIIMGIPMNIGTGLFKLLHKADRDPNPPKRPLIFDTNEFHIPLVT
UniProt O00762: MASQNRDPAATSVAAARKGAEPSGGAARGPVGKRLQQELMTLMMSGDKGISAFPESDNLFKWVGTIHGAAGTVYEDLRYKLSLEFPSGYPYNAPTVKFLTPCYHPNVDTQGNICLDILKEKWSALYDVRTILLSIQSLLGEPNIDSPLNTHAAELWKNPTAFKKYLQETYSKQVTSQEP
UniProt O14776: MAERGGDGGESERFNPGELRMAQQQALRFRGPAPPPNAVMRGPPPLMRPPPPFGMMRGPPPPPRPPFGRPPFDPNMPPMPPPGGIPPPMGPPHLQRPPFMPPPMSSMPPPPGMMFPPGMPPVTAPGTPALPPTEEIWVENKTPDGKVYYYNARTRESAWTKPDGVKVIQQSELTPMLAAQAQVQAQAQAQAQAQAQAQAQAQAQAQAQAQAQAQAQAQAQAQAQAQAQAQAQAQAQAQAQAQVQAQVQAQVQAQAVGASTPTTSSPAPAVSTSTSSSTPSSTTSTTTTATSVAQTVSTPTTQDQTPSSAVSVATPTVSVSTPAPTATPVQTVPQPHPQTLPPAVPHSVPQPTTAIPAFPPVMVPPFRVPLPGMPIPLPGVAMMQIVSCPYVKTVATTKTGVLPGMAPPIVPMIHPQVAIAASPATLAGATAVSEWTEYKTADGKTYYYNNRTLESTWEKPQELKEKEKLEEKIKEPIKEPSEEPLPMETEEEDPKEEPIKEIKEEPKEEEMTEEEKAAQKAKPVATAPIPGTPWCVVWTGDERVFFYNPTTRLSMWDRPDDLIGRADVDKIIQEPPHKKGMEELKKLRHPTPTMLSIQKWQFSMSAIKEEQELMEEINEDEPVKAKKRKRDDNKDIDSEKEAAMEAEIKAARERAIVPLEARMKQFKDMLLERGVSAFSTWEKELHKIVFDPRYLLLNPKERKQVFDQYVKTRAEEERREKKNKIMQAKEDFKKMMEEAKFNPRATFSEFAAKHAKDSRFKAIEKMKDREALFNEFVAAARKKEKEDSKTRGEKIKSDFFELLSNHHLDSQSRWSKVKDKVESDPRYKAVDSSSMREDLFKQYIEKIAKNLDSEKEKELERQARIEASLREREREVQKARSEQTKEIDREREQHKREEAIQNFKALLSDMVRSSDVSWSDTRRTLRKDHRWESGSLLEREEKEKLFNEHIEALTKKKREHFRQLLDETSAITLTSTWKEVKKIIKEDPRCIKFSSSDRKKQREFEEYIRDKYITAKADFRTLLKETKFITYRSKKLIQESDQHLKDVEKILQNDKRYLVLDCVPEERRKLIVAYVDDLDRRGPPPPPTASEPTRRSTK
UniProt O43175: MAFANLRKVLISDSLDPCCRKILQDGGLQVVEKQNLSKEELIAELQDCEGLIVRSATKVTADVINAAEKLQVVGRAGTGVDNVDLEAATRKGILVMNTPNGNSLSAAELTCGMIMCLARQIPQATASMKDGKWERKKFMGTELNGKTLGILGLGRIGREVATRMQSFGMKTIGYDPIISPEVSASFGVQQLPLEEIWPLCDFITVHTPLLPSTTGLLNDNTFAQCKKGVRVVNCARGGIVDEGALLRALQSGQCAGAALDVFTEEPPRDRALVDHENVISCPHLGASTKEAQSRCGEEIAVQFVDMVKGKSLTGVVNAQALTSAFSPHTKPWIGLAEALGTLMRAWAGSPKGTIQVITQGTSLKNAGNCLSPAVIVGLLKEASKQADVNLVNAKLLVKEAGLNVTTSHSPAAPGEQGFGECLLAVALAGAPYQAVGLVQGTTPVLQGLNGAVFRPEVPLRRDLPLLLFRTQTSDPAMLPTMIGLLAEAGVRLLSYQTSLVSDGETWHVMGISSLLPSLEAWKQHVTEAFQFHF
UniProt O15042: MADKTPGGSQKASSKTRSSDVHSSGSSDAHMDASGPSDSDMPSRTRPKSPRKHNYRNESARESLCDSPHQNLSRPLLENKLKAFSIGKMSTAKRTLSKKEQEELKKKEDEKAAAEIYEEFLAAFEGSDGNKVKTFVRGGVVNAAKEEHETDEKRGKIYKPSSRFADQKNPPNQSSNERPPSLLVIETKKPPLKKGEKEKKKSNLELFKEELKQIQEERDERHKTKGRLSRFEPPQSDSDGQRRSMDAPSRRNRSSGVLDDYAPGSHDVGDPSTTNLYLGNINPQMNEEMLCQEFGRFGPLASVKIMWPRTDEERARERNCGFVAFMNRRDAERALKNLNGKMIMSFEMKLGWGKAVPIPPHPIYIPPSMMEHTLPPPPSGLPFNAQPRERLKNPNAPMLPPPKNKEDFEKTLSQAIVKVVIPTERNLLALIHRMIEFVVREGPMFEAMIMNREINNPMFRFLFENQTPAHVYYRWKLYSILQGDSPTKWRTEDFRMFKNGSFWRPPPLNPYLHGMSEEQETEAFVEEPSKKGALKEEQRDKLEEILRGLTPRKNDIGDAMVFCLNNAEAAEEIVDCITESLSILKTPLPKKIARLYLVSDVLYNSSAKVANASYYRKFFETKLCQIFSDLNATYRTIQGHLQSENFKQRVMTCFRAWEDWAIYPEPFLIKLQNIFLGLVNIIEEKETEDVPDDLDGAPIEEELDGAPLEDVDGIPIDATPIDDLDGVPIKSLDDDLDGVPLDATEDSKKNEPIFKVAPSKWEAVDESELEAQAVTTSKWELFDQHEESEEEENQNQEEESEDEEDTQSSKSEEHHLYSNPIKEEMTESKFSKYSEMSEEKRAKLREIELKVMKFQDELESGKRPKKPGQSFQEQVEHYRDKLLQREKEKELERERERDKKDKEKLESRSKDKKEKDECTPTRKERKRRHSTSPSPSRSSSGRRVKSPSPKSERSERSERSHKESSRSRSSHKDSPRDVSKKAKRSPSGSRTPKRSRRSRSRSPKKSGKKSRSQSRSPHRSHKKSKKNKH

log2 ratio of iodoacetamide-alkyne labeling, inactive:
UniProt O00148_C223 0.0985
UniProt O14618_C244 -0.0274
OGT C323 (UniProt O15294) 0.0604
EIF3D C327 (UniProt O15371) -0.102
POLR3A C883 (UniProt O14802) 0.187
KMT2D C392 (UniProt O14686) 0.382
TRIM24 C81 (UniProt O15164) 0.0661
UBE2C C114 (UniProt O00762) 0.321
PRMT5 C22 (UniProt O14744) 0.271
TCERG1 C1062 (UniProt O14776) 0.116
TNRC18 C2204 (UniProt O15417) 0.151
PHGDH C111 (UniProt O43175) 0.00502
EXOC5 C111 (UniProt O00471) 0.297
EI24 C24 (UniProt O14681) 0.163
UniProt O15042_C320 0.307

Looked up one by one from above (2):
log2 ratio of iodoacetamide-alkyne labeling, inactive:
PHGDH C111 (UniProt O43175) 0.00502
EIF3D C327 (UniProt O15371) -0.102

Reference: the supplement of paper PMC11006884
